Results reported in the supplement of paper PMC8728848.
The other results are listed elsewhere or left out.

How the values were obtained:
Assay in all cases: glycan array binding signal (z-score within array); higher = stronger binding
Settings in all cases: glycan notation: IUPAC condensed, linker removed; mutation: E321K
[1] = molecular target: Gal(b1-4)GlcNAc(b1-6)GalNAc
How it was run: (§1)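 Glycan array binding is given as a within-array Z-score, which can be read as non-binding when negative. The arrays, 3228 of them, came from the Consortium for Functional Glycomics database and were retained only where the protein sequence was available. Z-scores were averaged across arrays of the same protein sequence at different concentrations or buffers and across linkers.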

[2] = molecular target: Gal(b1-4)GlcNAc(b1-6)[Gal(b1-3)]GalNAc
How it was run: as §1

[3] = molecular target: Gal3S(b1-3)GalNAc
How it was run: as §1

[4] = molecular target: Gal3S(b1-3)GlcNAc
How it was run: as §1

[5] = molecular target: Gal3S(b1-3)[Fuc(a1-4)]GlcNAc
How it was run: as §1

[6] = molecular target: Gal3S(b1-4)Glc
How it was run: as §1

[7] = molecular target: Gal3S(b1-4)Glc6S
How it was run: as §1

[8] = molecular target: Gal3S(b1-4)GlcNAc
How it was run: as §1

[9] = molecular target: Gal3S(b1-4)GlcNAc6S
How it was run: as §1

[10] = molecular target: Gal3S(b1-4)[Fuc(a1-3)]Glc
How it was run: as §1

[11] = molecular target: Gal3S4S(b1-4)GlcNAc
How it was run: as §1

[12] = molecular target: Gal3S6S(b1-4)GlcNAc
How it was run: as §1

[13] = molecular target: Gal3S6S(b1-4)GlcNAc6S
How it was run: as §1

[14] = molecular target: Gal4S(b1-4)GlcNAc
How it was run: as §1

[15] = molecular target: Gal4S6S(b1-4)GlcNAc
How it was run: as §1

[16] = molecular target: Gal6S(b1-4)Glc
How it was run: as §1

[17] = molecular target: Gal6S(b1-4)Glc6S
How it was run: as §1

[18] = molecular target: Gal6S(b1-4)GlcNAc
How it was run: as §1

[19] = molecular target: Gal6S(b1-4)GlcNAc6S
How it was run: as §1

[20] = molecular target: GalNAc(a1-3)Gal
How it was run: as §1

[21] = molecular target: GalNAc(a1-3)GalNAc
How it was run: as §1

[22] = molecular target: GalNAc(b1-3)Gal
How it was run: as §1

[23] = molecular target: GalNAc(b1-3)Gal(a1-4)Gal(b1-4)GlcNAc
How it was run: as §1

[24] = molecular target: GalNAc(b1-3)GalNAc
How it was run: as §1

[25] = molecular target: GalNAc(b1-4)GlcNAc
How it was run: as §1

[26] = molecular target: Glc(a1-4)Glc
How it was run: as §1

[27] = molecular target: Glc(a1-6)Glc(a1-6)Glc
How it was run: as §1

[28] = molecular target: Glc(b1-4)Glc
How it was run: as §1

[29] = molecular target: Glc(b1-6)Glc
How it was run: as §1

[30] = molecular target: GlcA(b1-3)Gal
How it was run: as §1

[31] = molecular target: GlcA(b1-3)GlcNAc
How it was run: as §1

[32] = molecular target: GlcA(b1-6)Gal
How it was run: as §1

[33] = molecular target: GlcNAc(a1-3)Gal(b1-4)GlcNAc
How it was run: as §1

[34] = molecular target: GlcNAc(a1-6)Gal(b1-4)GlcNAc
How it was run: as §1

[35] = molecular target: GlcNAc(b1-2)Gal(b1-3)GalNAc
How it was run: as §1

[36] = molecular target: GlcNAc(b1-2)Man(a1-3)[GlcNAc(b1-2)Man(a1-6)]Man(b1-4)GlcNAc(b1-4)GlcNAc
How it was run: as §1

[37] = molecular target: GlcNAc(b1-3)Gal
How it was run: as §1

[38] = molecular target: GlcNAc(b1-3)Gal(b1-3)GalNAc
How it was run: as §1

B1: Surfactant Protein D (Human); Neck + Carbohydrate Recognition Domain (NCRD) (Homo sapiens) (protein)
chain: MLLFLLSALVLLTQPLGYLEAEMKTYSHRTMPSACTLVMCSSVESGLPGRDRDGREGPRGEKGDPGLPGAAGQAGMPGQAGPVGPKGDNGSVGEPGPKGDTGPSGPPGPPGVPGPAGREGALGKQGNIGPQGKPGPKGEAGPKGEVGAPGMQGSAGARGLAGPKGERGVPGERGVPGNTGAAGSAGAMGPQGSPGARGPPGLKGDKGIPGDKGAKGESGLPDVASLRQQVEALQGQVQHLQAAFSQYKKVELFPNGQSVGEKIFKTAQFVKPFTEAQLLCTQAGGQLASPRSAAENAALQQLVVAKNEAAFLSMTDSKTEGKFTYPTGESLVYSNWAPGKPNDDGGSEDCVEIFTNGKWNDRACGEKRLVVCEF
glycan array binding signal (z-score) [1]: 0.897
glycan array binding signal (z-score) [2]: -0.831
glycan array binding signal (z-score) [3]: 0.265
glycan array binding signal (z-score) [4]: 0.454
glycan array binding signal (z-score) [5]: 1.02
glycan array binding signal (z-score) [6]: 1.19
glycan array binding signal (z-score) [7]: -0.079
glycan array binding signal (z-score) [8]: 0.351
glycan array binding signal (z-score) [9]: 1.49
glycan array binding signal (z-score) [10]: 1.34
glycan array binding signal (z-score) [11]: -0.432
glycan array binding signal (z-score) [12]: 2.54
glycan array binding signal (z-score) [13]: 0.123
glycan array binding signal (z-score) [14]: 0.208
glycan array binding signal (z-score) [15]: 2.18
glycan array binding signal (z-score) [16]: 0.414
glycan array binding signal (z-score) [17]: 2.78
glycan array binding signal (z-score) [18]: 0.536
glycan array binding signal (z-score) [19]: 1.8
glycan array binding signal (z-score) [20]: 0.898
glycan array binding signal (z-score) [21]: -0.701
glycan array binding signal (z-score) [22]: -0.962
glycan array binding signal (z-score) [23]: -0.999
glycan array binding signal (z-score) [24]: 0.36
glycan array binding signal (z-score) [25]: 0.233
glycan array binding signal (z-score) [26]: -0.276
glycan array binding signal (z-score) [27]: -1.22
glycan array binding signal (z-score) [28]: -1.06
glycan array binding signal (z-score) [29]: -0.245
glycan array binding signal (z-score) [30]: -0.788
glycan array binding signal (z-score) [31]: -0.699
glycan array binding signal (z-score) [32]: -0.371
glycan array binding signal (z-score) [33]: -0.533
glycan array binding signal (z-score) [34]: 1.09
glycan array binding signal (z-score) [35]: -0.303
glycan array binding signal (z-score) [36]: -0.307
glycan array binding signal (z-score) [37]: -0.749
glycan array binding signal (z-score) [38]: 1.22
